Reference: PubChem BioAssay AID1259254 (NCATS, 2017)

- Purpose: 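Gene knock-downs that lead to re-replication, shown by excess G2 DNA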 (primary screen)
- Cell system: human HCT116 colorectal cancer cells
- Reagent: single siRNA against human genes
- Time to read-out: 3 days
- Measured: 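Nuclei stained with Hoechst and imaged; cell-cycle phase assigned by DNA content; G2 share scaled per plate, non-targeting siRNA 0%, GMNN siRNA 100%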
- Direction: G2 robust z-score and G2 cells, % of GMNN control: higher = more G2 cells, more excess DNA replication; raw share of cells in G2: higher = larger share of cells with G2 DNA content
- Active means: 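Active siRNAs have a G2 robust z of 5 or more median absolute deviations over the median, which in these data means about 38% or higher of GMNN control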
In all, the deposit lists about 59,000 reagents; this is a random part of them. Over the whole deposit, about 1,550 (2.6%) were called active. 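G2 share is only a proxy for re-replication; each gene was hit by three separate siRNAs, and active genes were retested.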 Raw values are not corrected between plates. The numbers tell different reagents against one gene apart. No sequences are given here. The record does not give: the amount of reagent.

gene,reagent,G2 robust z-score,"G2 cells, % of GMNN control",raw share of cells in G2 (%),call
CCDC54,1,1.83,15.8,9.38,inactive
CCDC54,2,-0.564,-1,3.16,inactive
CCDC54,3,2.14,18,7.88,inactive
LZTFL1,1,6.1,45.9,20,active
LZTFL1,2,0.526,6.67,7.08,inactive
LZTFL1,3,-0.0804,2.4,3.99,inactive
IGFN1,1,0.681,7.76,7.38,inactive
IGFN1,2,0.512,6.57,5.06,inactive
IGFN1,3,0.071,3.47,4.02,inactive
GPR161,1,2.01,17.1,12,inactive
GPR161,2,-1.01,-4.13,3.07,inactive
GPR161,3,-1.49,-7.52,0.964,inactive
ATP6AP2,1,-0.9,-3.37,4.23,inactive
ATP6AP2,2,-0.886,-3.27,5.19,inactive
ATP6AP2,3,-0.804,-2.69,2.97,inactive
ERVW-1,1,2.42,20,11.5,inactive
ERVW-1,2,-0.426,-0.0308,4.54,inactive
ERVW-1,3,0.0455,3.29,4.29,inactive
SGK3,1,-0.199,1.57,6.08,inactive
SGK3,2,-0.794,-2.62,4.24,inactive
SGK3,3,0.0546,3.35,4.76,inactive
ZNF227,1,-0.784,-2.55,2.68,inactive
ZNF227,2,-0.803,-2.68,4.79,inactive
ZNF227,3,-0.545,-0.868,2.98,inactive
PSD3,1,0.703,7.91,7.39,inactive
PSD3,2,-0.122,2.11,4.85,inactive
PSD3,3,5.72,43.2,18.4,active
SDHAF2,1,-0.287,0.948,3.94,inactive
SDHAF2,2,0.608,7.25,7.32,inactive
SDHAF2,3,1.83,15.9,8.44,inactive
STMN2,1,-0.456,-0.238,4.89,inactive
STMN2,2,-0.369,0.371,4.29,inactive
STMN2,3,0.947,9.63,6.78,inactive
ELOVL6,1,0.705,7.93,7.15,inactive
ELOVL6,2,3.47,27.4,14.2,inactive
ELOVL6,3,0.17,4.16,7.37,inactive
SURF1,1,-0.167,1.8,5.93,inactive
SURF1,2,-1.06,-4.47,2.12,inactive
SURF1,3,-0.164,1.81,3.99,inactive
CLEC7A,1,0.597,7.16,4.59,inactive
CLEC7A,2,2.23,18.7,12.7,inactive
CLEC7A,3,-0.844,-2.97,3.28,inactive
SEMA3B,1,-1.23,-5.71,2.13,inactive
SEMA3B,2,-0.866,-3.12,4.28,inactive
SEMA3B,3,-1.29,-6.13,2.46,inactive
LARS1,1,-1.55,-7.91,2.36,inactive
LARS1,2,-0.297,0.881,4.57,inactive
LARS1,3,-1.27,-5.98,1.51,inactive
CTBP1,1,-0.905,-3.4,3.75,inactive
CTBP1,2,1.77,15.4,10.6,inactive
CTBP1,3,-1.22,-5.58,2.17,inactive
MYO10,1,1.9,16.3,11.9,inactive
MYO10,2,-0.551,-0.907,2.9,inactive
MYO10,3,0.315,5.18,7.36,inactive
C1QTNF4,1,0.95,9.65,6.21,inactive
C1QTNF4,2,-0.377,0.314,1.91,inactive
C1QTNF4,3,1.62,14.4,9.86,inactive
SCNN1B,1,2.12,17.9,11.8,inactive
SCNN1B,2,0.48,6.34,6.93,inactive
SCNN1B,3,-0.016,2.86,5.49,inactive
PCBP4,1,-0.631,-1.48,3.91,inactive
PCBP4,2,0.342,5.37,8.78,inactive
PCBP4,3,0.33,5.29,6.54,inactive
TWF1,1,-1.09,-4.71,4.05,inactive
TWF1,2,-0.721,-2.1,4.7,inactive
TWF1,3,0.7,7.89,6.81,inactive
SLC38A5,1,0.14,3.95,5.76,inactive
SLC38A5,2,0.207,4.43,4.39,inactive
SLC38A5,3,0.0758,3.5,4.03,inactive
